Experimental data taken from PMC5742674.
These are yes or no findings as the source states them, for the method shown. Binding seen in cells or lysates may run through a third protein. Some results given as binding are weak or reduced against the parent protein; the word gives no strength.

Biological target: T1, toll‐like receptor 3 (TLR3) (mouse (endogenous in heart tissue)) (UniProt Q99MB1)
T1 sequence: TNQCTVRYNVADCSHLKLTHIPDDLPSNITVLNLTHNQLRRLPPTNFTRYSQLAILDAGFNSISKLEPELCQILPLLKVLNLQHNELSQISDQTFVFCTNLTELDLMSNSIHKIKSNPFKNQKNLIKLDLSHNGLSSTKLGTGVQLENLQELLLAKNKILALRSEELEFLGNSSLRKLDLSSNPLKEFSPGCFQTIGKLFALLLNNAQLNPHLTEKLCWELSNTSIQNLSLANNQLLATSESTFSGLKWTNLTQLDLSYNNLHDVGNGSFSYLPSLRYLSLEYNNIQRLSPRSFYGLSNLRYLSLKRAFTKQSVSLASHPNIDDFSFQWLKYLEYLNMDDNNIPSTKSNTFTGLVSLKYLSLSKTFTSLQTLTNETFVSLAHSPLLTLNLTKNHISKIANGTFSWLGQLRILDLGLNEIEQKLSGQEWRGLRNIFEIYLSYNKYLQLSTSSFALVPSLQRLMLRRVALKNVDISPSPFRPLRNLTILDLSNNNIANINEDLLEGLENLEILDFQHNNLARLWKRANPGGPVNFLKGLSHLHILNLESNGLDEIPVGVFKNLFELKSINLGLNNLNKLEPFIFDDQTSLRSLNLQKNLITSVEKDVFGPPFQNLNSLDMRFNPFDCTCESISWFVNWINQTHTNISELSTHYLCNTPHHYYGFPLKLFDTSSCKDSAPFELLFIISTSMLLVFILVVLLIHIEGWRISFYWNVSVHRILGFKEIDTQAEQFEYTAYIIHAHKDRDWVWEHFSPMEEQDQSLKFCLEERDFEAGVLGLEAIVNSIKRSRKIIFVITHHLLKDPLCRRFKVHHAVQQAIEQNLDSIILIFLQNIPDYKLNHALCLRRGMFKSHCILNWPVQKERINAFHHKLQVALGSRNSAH
Test: co-IP; mouse heart tissue lysates (RIPA buffer, 300 μg total protein; sham or infarct myocardium, 4 weeks after MI), pre-incubated with isotype IgG, precipitated with 6 μg anti-TLR3 antibody overnight at 4°C and protein G-agarose, then Western blot; IP with isotype IgG as control

- binding: binds
B1: TIR‐domain‐containing adaptor inducing interferon‐β (Trif) (protein, UniProt Q80UF7 1-732)
chain: MDNPGPSLRGAFGILGALERDRLTHLKHKLGSLCSGSQESKLLHAMVLLALGQDTEARVSLESLKMNTVAQLVAHQWADMETTEGPEEPPDLSWTVARLYHLLAEENLCPASTRDMAYQVALRDFASQGDHQLGQLQNEAWDRCSSDIKGDPSGFQPLHSHQGSLQPPSASPAVTRSQPRPIDTPDWSWGHTLHSTNSTASLASHLEISQSPTLAFLSSHHGTHGPSKLCNTPLDTQEPQLVPEGCQEPEEISWPPSVETSVSLGLPHEISVPEVSPEEASPILPDALAAPDTSVHCPIECTELSTNSRSPLTSTTESVGKQWPITSQRSPQVPVGDDSLQNTTSSSPPAQPPSLQASPKLPPSPLSSASSPSSYPAPPTSTSPVLDHSETSDQKFYNFVVIHARADEQVALRIREKLETLGVPDGATFCEEFQVPGRGELHCLQDAIDHSGFTILLLTASFDCSLSLHQINHALMNSLTQSGRQDCVIPLLPLECSQAQLSPDTTRLLHSIVWLDEHSPIFARKVANTFKTQKLQAQRVRWKKAQEARTLKEQSIQLEAERQNVAAISAAYTAYVHSYRAWQAEMNKLGVAFGKNLSLGTPTPSWPGCPQPIPSHPQGGTPVFPYSPQPPSFPQPPCFPQPPSFPQPPSFPLPPVSSPQSQSFPSASSPAPQTPGPQPLIIHHAQMVQLGVNNHMWGHTGAQSSDDKTECSENPCMGPLTDQGEPLLETPE
